Results published in article PMC7359353, “Rab27a co-ordinates actin-dependent transport by controlling organelle-associated motors and track assembly proteins” (Nature Communications, 2020).

Molecular target: T1, GST-Rab27a-Q78L (UniProt P23640 1-221, Q78L)
T1 construct: Rab27a; rat Rab27a is stated only for the BiFC constructs; also called GTP-locked Rab27a-Q78L; active Rab27a-Q78L; source: E. coli Rosetta, purified (GSH-Sepharose 4B, size-exclusion chromatography)
T1 sequence (looked up): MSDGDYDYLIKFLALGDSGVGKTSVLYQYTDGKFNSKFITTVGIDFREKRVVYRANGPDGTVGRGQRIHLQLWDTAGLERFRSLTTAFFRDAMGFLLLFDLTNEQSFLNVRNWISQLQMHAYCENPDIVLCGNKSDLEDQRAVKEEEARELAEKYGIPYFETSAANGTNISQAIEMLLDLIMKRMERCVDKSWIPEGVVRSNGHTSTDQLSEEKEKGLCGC
Experiment: pull-down; 50 µg GST-Rab27a (Q78L or T23N) coupled to GSH-Sepharose 4B beads, incubated with HEK293 cell lysates 2 h at 4 °C; 25 mM Tris-HCl pH 7.4, 150 mM NaCl, 5 mM MgCl2, 10% glycerol, 0.1% Nonidet P-40; bound proteins analysed by immunoblotting (anti-c-Myc, anti-GFP); only the target purified

Substance | binding
SPIRE1 E548A (from UniProt Q08AE8-2) | no binding
SPIRE1 E548K (from UniProt Q08AE8-2) | no binding

These are yes or no findings as the source states them, for the method shown. Binding seen in cells or lysates may run through a third protein. Tags and fused reporters may be left off the sequences shown.
